Data from the supplement of paper PMC10849652.
This is one part of the list.

By UniProt entry, the sequences of proteins in these tests, tags left out. Where a name states a change or a piece, a line headed by the entry shows the natural chain unless it says otherwise.
UniProt Q8N5M4: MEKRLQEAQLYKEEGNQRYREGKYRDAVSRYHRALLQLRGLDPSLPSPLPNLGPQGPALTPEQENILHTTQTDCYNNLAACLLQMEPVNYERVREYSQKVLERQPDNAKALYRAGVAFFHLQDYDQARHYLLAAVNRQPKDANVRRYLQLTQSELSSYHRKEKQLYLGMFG
UniProt O75648: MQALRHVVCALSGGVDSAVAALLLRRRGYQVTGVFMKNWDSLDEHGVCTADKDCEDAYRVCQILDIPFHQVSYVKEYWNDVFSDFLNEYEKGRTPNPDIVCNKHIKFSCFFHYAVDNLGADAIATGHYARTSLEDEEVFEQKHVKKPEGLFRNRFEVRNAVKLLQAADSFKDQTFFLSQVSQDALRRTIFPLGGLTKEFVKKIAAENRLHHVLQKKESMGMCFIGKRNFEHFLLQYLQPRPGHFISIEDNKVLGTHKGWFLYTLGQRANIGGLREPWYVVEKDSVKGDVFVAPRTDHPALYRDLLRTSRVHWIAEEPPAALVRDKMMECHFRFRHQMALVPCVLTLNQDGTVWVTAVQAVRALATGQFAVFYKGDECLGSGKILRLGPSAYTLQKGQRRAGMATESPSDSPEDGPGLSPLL
UniProt Q9Y2L5: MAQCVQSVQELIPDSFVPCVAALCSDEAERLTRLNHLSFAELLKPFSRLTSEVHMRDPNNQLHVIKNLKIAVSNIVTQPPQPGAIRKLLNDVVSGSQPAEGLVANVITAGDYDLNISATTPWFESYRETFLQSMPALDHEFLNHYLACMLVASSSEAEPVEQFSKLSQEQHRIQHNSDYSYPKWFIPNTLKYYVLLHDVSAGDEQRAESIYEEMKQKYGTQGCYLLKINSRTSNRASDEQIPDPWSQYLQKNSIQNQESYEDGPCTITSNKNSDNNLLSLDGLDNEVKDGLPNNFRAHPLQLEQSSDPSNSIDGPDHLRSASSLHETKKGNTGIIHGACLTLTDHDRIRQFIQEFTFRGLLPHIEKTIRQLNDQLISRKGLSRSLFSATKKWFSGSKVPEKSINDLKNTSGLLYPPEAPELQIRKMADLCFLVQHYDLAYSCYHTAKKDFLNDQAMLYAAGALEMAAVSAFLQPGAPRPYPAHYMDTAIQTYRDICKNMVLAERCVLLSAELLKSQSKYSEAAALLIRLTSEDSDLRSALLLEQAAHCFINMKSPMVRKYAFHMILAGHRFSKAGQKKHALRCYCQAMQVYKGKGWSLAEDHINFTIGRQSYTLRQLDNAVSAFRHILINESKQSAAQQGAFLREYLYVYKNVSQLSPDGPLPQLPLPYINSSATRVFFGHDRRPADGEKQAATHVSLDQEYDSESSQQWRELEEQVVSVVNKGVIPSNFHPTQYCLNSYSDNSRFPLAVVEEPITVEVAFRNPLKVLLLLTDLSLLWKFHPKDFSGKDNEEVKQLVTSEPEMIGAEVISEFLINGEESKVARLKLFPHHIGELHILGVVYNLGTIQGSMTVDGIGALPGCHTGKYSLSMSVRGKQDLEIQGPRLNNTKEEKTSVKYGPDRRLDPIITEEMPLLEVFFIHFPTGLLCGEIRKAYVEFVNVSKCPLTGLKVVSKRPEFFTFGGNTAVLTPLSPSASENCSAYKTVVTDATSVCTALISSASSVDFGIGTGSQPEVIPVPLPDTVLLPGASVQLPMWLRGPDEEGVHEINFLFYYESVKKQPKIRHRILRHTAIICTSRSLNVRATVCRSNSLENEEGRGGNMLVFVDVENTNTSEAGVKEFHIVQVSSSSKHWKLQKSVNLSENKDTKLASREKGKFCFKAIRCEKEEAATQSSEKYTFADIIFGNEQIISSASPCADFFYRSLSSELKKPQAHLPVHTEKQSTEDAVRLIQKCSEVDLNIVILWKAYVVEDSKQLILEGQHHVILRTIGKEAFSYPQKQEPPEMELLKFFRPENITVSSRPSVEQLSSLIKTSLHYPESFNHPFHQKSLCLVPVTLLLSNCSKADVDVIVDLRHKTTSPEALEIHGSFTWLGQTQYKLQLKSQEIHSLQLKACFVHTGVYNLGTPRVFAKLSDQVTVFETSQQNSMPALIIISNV
UniProt P33981: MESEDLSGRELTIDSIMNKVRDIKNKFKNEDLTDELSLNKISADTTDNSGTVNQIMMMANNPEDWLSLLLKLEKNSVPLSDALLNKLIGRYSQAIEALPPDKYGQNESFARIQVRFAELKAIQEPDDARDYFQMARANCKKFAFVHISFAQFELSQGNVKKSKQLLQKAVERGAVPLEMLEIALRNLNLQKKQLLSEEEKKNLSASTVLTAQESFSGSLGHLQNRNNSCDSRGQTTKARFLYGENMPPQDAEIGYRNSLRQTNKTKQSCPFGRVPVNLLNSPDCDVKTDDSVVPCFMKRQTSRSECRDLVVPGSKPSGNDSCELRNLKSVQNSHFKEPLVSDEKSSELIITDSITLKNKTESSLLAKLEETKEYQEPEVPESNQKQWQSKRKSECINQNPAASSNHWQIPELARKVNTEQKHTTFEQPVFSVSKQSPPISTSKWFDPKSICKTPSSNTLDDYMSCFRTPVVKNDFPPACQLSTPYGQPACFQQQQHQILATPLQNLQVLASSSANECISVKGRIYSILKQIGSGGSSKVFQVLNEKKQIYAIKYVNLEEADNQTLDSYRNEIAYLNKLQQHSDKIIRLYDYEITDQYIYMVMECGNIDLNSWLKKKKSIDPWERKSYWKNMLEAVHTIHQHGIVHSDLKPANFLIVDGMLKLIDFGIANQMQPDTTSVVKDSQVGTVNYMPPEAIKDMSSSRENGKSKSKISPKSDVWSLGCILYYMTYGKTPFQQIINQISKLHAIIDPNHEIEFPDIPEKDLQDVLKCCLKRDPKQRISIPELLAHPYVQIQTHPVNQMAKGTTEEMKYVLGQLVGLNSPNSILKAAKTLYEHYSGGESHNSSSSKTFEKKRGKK
UniProt Q9UJK0: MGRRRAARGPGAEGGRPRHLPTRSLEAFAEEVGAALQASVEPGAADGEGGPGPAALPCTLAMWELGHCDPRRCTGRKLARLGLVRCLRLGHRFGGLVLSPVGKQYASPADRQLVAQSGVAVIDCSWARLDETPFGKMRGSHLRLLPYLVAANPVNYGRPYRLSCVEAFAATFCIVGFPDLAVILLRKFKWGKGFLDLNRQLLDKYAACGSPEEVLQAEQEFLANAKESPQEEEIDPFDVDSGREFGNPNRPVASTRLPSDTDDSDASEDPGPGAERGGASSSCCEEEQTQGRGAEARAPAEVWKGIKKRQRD
UniProt O00635: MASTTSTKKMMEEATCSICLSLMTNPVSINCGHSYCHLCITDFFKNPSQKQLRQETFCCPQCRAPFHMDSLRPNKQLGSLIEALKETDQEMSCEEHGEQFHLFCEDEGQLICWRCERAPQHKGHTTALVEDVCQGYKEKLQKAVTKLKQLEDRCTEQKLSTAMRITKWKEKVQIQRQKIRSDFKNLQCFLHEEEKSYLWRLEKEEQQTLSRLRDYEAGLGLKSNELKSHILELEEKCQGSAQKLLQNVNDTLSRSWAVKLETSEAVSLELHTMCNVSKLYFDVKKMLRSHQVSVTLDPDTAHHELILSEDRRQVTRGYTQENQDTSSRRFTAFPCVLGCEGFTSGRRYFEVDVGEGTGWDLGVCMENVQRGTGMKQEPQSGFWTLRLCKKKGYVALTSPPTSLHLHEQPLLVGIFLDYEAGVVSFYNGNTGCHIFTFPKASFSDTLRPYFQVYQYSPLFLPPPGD
UniProt Q8NG11: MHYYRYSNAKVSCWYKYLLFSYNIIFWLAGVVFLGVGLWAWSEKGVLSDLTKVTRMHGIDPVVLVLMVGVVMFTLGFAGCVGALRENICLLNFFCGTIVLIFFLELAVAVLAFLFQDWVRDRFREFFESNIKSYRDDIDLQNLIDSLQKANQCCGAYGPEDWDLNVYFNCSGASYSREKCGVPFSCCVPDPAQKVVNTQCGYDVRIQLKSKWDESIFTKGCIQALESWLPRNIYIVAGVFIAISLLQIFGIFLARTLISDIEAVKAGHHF
UniProt O43734: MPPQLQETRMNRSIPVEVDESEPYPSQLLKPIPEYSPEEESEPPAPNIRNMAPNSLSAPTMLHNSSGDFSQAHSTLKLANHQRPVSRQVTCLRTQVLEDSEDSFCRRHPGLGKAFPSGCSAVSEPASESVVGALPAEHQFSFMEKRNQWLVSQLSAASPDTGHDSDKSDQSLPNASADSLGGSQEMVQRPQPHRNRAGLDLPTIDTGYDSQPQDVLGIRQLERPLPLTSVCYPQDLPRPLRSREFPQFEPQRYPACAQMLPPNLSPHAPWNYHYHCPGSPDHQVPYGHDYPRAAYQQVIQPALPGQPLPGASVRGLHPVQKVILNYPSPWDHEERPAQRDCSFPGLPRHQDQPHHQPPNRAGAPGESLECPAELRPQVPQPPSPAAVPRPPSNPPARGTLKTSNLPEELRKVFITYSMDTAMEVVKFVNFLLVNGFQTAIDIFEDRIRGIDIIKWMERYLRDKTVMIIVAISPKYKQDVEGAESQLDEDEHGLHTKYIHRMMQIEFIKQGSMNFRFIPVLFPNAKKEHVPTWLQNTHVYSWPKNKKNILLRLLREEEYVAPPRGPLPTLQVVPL
UniProt Q9UJT2: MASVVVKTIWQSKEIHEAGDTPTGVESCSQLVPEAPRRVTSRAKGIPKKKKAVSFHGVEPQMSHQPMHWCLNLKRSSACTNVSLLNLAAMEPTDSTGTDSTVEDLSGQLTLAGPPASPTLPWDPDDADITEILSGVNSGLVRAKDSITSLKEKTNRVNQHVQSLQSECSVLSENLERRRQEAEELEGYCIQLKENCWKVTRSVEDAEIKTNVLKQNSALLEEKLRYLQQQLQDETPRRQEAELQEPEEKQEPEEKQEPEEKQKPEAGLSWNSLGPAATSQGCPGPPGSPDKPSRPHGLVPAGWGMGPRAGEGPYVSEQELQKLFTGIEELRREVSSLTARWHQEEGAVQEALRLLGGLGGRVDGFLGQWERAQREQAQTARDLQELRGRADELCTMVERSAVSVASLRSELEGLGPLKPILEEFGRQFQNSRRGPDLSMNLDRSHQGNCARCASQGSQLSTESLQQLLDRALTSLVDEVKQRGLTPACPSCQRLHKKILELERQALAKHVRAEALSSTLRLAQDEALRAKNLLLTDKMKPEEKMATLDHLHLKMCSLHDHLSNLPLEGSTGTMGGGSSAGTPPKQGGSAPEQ
UniProt Q629K1: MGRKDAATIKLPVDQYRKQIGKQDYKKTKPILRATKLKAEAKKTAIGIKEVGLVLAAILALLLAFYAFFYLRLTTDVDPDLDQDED
UniProt Q9H2G4: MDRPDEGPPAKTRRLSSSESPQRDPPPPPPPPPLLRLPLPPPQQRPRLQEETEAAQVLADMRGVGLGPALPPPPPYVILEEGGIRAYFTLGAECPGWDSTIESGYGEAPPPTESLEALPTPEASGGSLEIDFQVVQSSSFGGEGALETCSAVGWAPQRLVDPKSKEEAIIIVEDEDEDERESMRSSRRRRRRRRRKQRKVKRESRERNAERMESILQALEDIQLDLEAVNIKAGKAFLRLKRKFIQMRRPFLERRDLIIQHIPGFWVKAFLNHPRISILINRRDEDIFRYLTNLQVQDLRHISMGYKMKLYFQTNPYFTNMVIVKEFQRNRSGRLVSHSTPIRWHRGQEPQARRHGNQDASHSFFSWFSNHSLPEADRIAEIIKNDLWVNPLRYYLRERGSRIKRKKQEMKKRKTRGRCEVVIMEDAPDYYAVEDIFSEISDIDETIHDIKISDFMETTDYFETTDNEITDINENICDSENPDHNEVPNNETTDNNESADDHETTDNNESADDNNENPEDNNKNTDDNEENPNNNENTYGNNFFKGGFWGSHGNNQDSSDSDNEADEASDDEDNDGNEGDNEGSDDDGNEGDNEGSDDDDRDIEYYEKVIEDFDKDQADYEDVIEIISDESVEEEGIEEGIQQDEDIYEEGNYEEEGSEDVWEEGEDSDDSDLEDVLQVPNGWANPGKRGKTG
UniProt Q8N4P2: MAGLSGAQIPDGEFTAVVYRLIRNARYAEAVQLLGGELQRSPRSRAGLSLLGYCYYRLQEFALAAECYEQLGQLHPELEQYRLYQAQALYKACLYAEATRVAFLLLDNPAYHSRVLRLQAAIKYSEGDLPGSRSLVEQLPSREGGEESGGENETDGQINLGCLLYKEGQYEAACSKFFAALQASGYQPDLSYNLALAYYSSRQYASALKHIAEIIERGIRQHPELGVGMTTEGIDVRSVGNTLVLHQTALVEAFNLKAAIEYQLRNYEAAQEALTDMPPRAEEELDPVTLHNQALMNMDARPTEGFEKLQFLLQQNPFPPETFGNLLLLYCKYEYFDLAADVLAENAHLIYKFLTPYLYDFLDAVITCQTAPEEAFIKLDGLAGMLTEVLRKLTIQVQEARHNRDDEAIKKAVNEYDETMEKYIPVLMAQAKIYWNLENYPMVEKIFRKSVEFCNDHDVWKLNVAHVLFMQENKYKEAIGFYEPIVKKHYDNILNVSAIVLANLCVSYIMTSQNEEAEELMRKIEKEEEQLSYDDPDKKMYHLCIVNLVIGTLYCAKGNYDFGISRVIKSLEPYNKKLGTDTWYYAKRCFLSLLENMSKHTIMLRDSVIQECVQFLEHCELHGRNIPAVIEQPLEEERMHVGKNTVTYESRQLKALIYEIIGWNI

Legend:
Test in all cases: log2 fold change, soluble protein after heating vs DMSO (PISA); higher = thermal stabilisation; K562 lysate, 10 uM; active = over 0.2 and 3.5 SD of the protein, either way, in both replicates (recomputed)
[1] = compound: C1=CC=C(C=C1)[C@H](COC2=CC3=C(C=C2)NC(=O)N3)NC(=O)C4=CC=CN(C4=O)CC5=CC(=C(C=C5)F)F
Summary of the method: (§1)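 The values are log-two fold changes in thermal stability compared with solvent controls and come from duplicates. They were obtained by TMTpro 16plex LC-MS/MS, with channel sums equalised, on the supernatant after 21,000xg for 90 min. That supernatant came from crude K562 extract at 1 mg/mL protein treated with 10 μM compound for 30 min, heated for 3 min across 48°C-58°C, pooled and brought to 0.5% NP-40 at 4°C.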

[2] = compound: CC1=C(SC2=C1C(=N[C@H](C3=NN=C(N32)C)CC(=O)N)C4=CC=C(C=C4)Cl)C
Summary of the method: as §1

[3] = compound: CC1=C2C(=CC=C1)N=C(N(C2=O)C3=CC=CC=C3C)CN4C=NC5=C(N=CN=C54)N
Summary of the method: as §1

[4] = compound: Cc1sc2c(c1C)C(c1ccc(Cl)cc1)=N[C@@H](CC(=O)OC(C)(C)C)c1nnc(C)n1-2
Summary of the method: as §1

[5] = compound: c1ccc([C@@H]2C[C@H]2NC2CCNCC2)cc1
Summary of the method: as §1

Measured: log2 fold change

TSPAN13 (UniProt O95857)
inactive: [1] 0.076 | [2] 0.025 | [3] -0.048 | [4] 0.187 | [5] -0.131

TTC9C (UniProt Q8N5M4)
inactive: [1] -0.033 | [2] 0.049 | [3] 0.01 | [4] 0.033 | [5] -0.035

TTC4 (UniProt O95801)
inactive: [1] -0.018 | [2] -0.003 | [3] 0.001 | [4] 0.033 | [5] -0.013

TTC1 (UniProt Q99614)
inactive: [1] 0.054 | [2] 0.001 | [3] -0.006 | [4] -0.03 | [5] 0.015

TRIP13 (UniProt Q15645)
inactive: [1] 0.006 | [2] 0.015 | [3] 0.018 | [4] 0.01 | [5] 0.049

TRIO (UniProt O75962)
inactive: [1] -0.05 | [2] 0.04 | [3] 0.058 | [4] 0.052 | [5] 0.004

TRMU (UniProt O75648)
inactive: [1] 0.068 | [2] -0.038 | [3] 0.008 | [4] 0.015 | [5] -0.06

TRIM25 (UniProt Q14258)
inactive: [1] 0.047 | [2] 0.001 | [3] 0.001 | [4] 0.013 | [5] 0.044

TRAPPC8 (UniProt Q9Y2L5)
inactive: [1] -0.009 | [2] -0.024 | [3] 0.002 | [4] 0.013 | [5] 0.003

TTK (UniProt P33981)
inactive: [1] -0.016 | [2] -0.003 | [3] 0.068 | [4] 0.02 | [5] 0.003

TSR3 (UniProt Q9UJK0)
inactive: [1] 0.034 | [2] 0.034 | [3] 0.024 | [4] 0.002 | [5] -0.038

Quoted from the listing (2 entries):
TTC1 (UniProt Q99614)
inactive: [1] 0.054 | [2] 0.001 | [3] -0.006 | [4] -0.03 | [5] 0.015

TRIP13 (UniProt Q15645)
inactive: [1] 0.006 | [2] 0.015 | [3] 0.018 | [4] 0.01 | [5] 0.049

Following part:

TRIM38 (UniProt O00635)
inactive: [1] 0.087 | [2] 0.006 | [3] -0.014 | [4] -0.015 | [5] 0.021

TRMT6 (UniProt Q9UJA5)
inactive: [1] 0.042 | [2] -0.008 | [3] 0.017 | [4] 0.002 | [5] 0.022

TRIM44 (UniProt Q96DX7)
inactive: [1] 0.096 | [2] -0.126 | [3] -0.061 | [4] -0.031 | [5] 0.083

TSPAN14 (UniProt Q8NG11)
inactive: [1] -0.063 | [2] -0.036 | [3] 0 | [4] 0.014 | [5] -0.027

TRAF3IP2 (UniProt O43734)
inactive: [3] -0.087 | [5] 0.081

TRIP4 (UniProt Q15650)
inactive: [1] 0.017 | [2] 0.013 | [3] 0.04 | [4] -0.062 | [5] 0.007

TTC26
inactive: [4] -0.15 | [5] -0.134

TSKS (UniProt Q9UJT2)
inactive: [3] 0.038 | [4] 0.034 | [5] 0.106

TRIQK (UniProt Q629K1)
inactive: [1] 0.007 | [2] 0.041 | [4] -0.369

TRMT10B (UniProt Q6PF06)
inactive: [5] 0.07

TSPYL2 (UniProt Q9H2G4)
inactive: [4] -0.066 | [5] 0.062

TTC30B (UniProt Q8N4P2)
inactive: [3] 0.027 | [5] 0.157
